Several values for one entry are separate records, joined by “and”; a condition that tells them apart may be missing. Identical values can stand only once. Out of some 580,000 compounds screened, about 6,100 (1.1%) were called active. The inconclusive results got no clear call from the source; some entries with a clear call stand among them for comparison. Calls follow the shape of the dose curve; as a rule, active = well fitted inhibition curve with a large enough effect; inconclusive = small, poorly fitted or top-dose-only effect, or another doubt; inactive = no such curve, though single readings can be large or run the other way. Where the call is inconclusive, the potency comes from a doubtful curve fit.
biological target: Polyunsaturated fatty acid lipoxygenase ALOX12 (Homo sapiens) (UniProt P18054); experiment: Primary qHTS assay for inhibitors of human arachidonate 12S-lipoxygenase (ALOX12): Round 2; conditions: purified 12hLO, xylenol orange hydroperoxide absorbance; activity change, negative = inhibition: at 108 µM (top of the series) unless noted
Outline: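 Hydroperoxide product was detected by ferrous iron/xylenol orange as the 573 to 405 nm absorbance ratio. Arachidonic acid at 40 uM (final) was turned over for 30 min at room temperature by 150 nM human 12hLO, pH 7.0 Hepes buffer, after 15 min compound preincubation.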
% is scaled to controls: 0 for no effect and ±100 for the full control effect; potency is read from the fitted curve at half-maximal effect.

Chains of the proteins cited; added tags and fusions are not shown. Lines headed by an entry give the natural chain unless they say otherwise; changes in a name come on top.
UniProt P18054: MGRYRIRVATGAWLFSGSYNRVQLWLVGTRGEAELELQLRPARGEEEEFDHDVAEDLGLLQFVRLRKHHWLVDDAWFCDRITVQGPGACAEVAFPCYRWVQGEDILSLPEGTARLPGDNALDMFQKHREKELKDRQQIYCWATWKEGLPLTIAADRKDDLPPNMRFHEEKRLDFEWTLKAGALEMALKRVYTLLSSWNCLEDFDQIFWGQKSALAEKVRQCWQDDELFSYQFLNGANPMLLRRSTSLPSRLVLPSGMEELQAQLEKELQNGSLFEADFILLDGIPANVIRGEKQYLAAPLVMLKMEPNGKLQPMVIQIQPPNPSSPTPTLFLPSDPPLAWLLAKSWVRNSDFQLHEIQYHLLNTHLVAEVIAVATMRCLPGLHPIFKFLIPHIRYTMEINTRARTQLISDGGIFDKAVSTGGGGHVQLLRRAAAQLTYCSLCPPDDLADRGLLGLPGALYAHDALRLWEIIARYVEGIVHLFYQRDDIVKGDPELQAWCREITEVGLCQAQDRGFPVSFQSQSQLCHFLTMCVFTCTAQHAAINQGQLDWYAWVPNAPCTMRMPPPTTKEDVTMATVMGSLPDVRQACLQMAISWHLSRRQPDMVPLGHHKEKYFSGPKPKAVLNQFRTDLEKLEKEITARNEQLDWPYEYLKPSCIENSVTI

For Cn1c(Cc2ccccc2)nc2cnc(Nc3cccc(C(F)(F)F)c3)cc21, which Potency is on record?
Its Potency is inconclusive: 79.4 µM [inhibitor, single point].

With O=C(O)C[C@@H]1CCN(S(=O)(=O)c2ccc(F)cc2)C[C@@H]1CC1=NCCc2cc(F)ccc21 as the molecule, how does the Potency read?
Its Potency is inconclusive: 20 µM [inhibitor, full curve].

How did the Potency turn out when Cn1nc(C(=O)Nc2nc(-c3ccc(F)cc3)cs2)ccc1=O was run?
Its Potency is inconclusive: 44.7 µM [inhibitor, single point].

Which Potency does the source give for c1ccc(Nc2ccnc(Nc3ccccc3)n2)cc1 here?
Its Potency is inconclusive: 35.5 µM [inhibitor, partial curve, poor fit].

For CC(=O)c1cccc(CN2CCCC(C(=O)Nc3ccc(-c4ccco4)cc3)C2)c1 (stereo unspecified), which Potency is on record?
Its Potency is inconclusive: 50.1 µM [inhibitor, partial curve, poor fit].

CC(=O)N1CCN(c2ccc(NCc3ccc(C)s3)cc2)CC1 was tested. Which Potency did it give?
Its Potency is inconclusive: 35.5 µM [inhibitor, partial curve].

COC(=O)c1sccc1NC(=O)c1ccc(Br)o1 was tested. Which “activity change, negative = inhibition” value did it give?
Its value is inactive: 8.41%.

CCOc1ccc(Cl)cc1-c1cc(C(=O)NC(C)C)[nH]n1 was tested. Which “activity change, negative = inhibition” value did it give?
The value was inactive: 1.6%.

How did the “activity change, negative = inhibition” value turn out when COc1ccc(CN2CCC(CO)(CN3CCCC3)CC2)c(OC)c1C was run?
The value was inactive: 13.2%.

With COc1ccc(CCNC(=O)COC(=O)c2ccc[nH]c2=O)cc1 as the molecule, how does the Potency read?
The Potency was inconclusive: 1.26 µM [inhibitor, partial curve, poor fit].

Cc1ccccc1C(=O)Nc1nnc2n1CCS2 was tested. Which “activity change, negative = inhibition” value did it give?
Its value is inactive: 0.924%.

For Cc1nc2cc(NS(=O)(=O)c3cccc(F)c3)ccc2s1, which Potency is on record?
Its Potency is inconclusive: 100 µM [inhibitor, single point].

Which Potency does the source give for Cc1ccc(NS(=O)(=O)c2ccc(Cl)c(C(=O)Nc3ccccc3-c3nc4ccccc4[nH]3)c2)cc1C here?
Its Potency is inconclusive: 44.7 µM [inhibitor, partial curve, poor fit].

How did the Potency turn out when Cn1cnc(C(=O)N2CCC(N3CC4CC(C3)[C@H]3CCCC(=O)N3C4)CC2)c1 (stereo partly specified) was run?
Its Potency is inconclusive: 5.01 µM [inhibitor, partial curve, poor fit].

How did the Potency turn out when CC(CN1CCCCC1)NC(=O)c1scnc1-c1ccccc1 (stereo unspecified) was run?
Its Potency is active: 5.62 µM.

Which Potency does the source give for Cc1ccc(/C=N\NC(=O)C2CC(=O)N(c3ccccc3)C2)o1 (stereo unspecified) here?
The Potency was inconclusive: 39.8 µM [inhibitor, partial curve, poor fit].

How did the Potency turn out when COc1ncccc1-c1nnn(-c2ccccc2Br)n1 was run?
Its Potency is active: 28.2 µM.

Which Potency does the source give for O=C(Nc1ccc(CN2CCOCC2)cc1)c1ccc(N2CCCC2)c([N+](=O)[O-])c1 here?
Its Potency is inconclusive: 3.16 µM [inhibitor, full curve, poor fit].

How did the Potency turn out when CCN(CC)c1ccc(NC(=O)c2nccnc2N)cc1 was run?
Its Potency is inconclusive: 35.5 µM [inhibitor, partial curve].

How did the Potency turn out when COC(=O)NNC(=O)COc1ccc2ccccc2c1Br was run?
The Potency was inconclusive: 50.1 µM [inhibitor, full curve, poor fit].

With CCN1CCN(CCOc2ccc3c(=O)c(-c4ccc(Cl)cc4)c(C)oc3c2)CC1 as the molecule, how does the Potency read?
The Potency was inconclusive: 44.7 µM [inhibitor, partial curve, poor fit].

Which Potency does the source give for Cc1ccc(SC2CC(=O)N(c3ccc4c(c3)OCCO4)C2=O)cc1 (stereo unspecified) here?
The Potency was inconclusive: 50.1 µM [inhibitor, partial curve, poor fit].

How did the Potency turn out when CC(c1ccco1)N(C(=O)C12CC3CC(CC(C3)C1)C2)c1ccccn1 (stereo unspecified) was run?
Its Potency is inconclusive: 28.2 µM [inhibitor, single point].

How did the “activity change, negative = inhibition” value turn out when CCCOc1ccc(Cn2c(SCC(=O)NC(C)(C)C)nc3c(sc4ncccc43)c2=O)cc1 was run?
The value was inactive: 0.717%.

With CC(=O)Nc1cc(C(=O)N2CCc3ccccc3C2)ccc1Sc1ccc(Cl)cc1 as the molecule, how does the Potency read?
The Potency was inconclusive: 79.4 µM [inhibitor, partial curve, poor fit].

O=C(Nc1ccccc1NC(=O)c1ccccc1F)c1ccccc1F was tested. Which “activity change, negative = inhibition” value did it give?
The value was inactive: 0%.

How did the Potency turn out when Cc1oc(/N=C/c2cccc([N+](=O)[O-])c2)c(C#N)c1C was run?
Its Potency is inconclusive: 35.5 µM [inhibitor, partial curve].

How did the Potency turn out when CCN(CC)c1ccc(NC(=O)COC(=O)CCc2cc(OC)c(OC)c(OC)c2)cc1 was run?
Its Potency is inconclusive: 100 µM [inhibitor, partial curve, poor fit].

How did the Potency turn out when COc1cccc(C2/C(=C(\O)c3ccc4c(c3)OCCO4)C(=O)C(=O)N2c2nnc(C)s2)c1 (stereo unspecified) was run?
The Potency was inconclusive: 44.7 µM [inhibitor, partial curve, poor fit].

How did the Potency turn out when COc1ccc2c(c1)C(n1c(C)ccc1C)C(=O)N2Cc1ccc(C(F)(F)F)cc1 (stereo unspecified) was run?
The Potency was active: 12.6 µM.

With Cc1ccc2cc(CCNC(=O)c3ccc(C)c([N+](=O)[O-])c3)c(=O)[nH]c2c1 as the molecule, how does the Potency read?
Its Potency is inconclusive: 63.1 µM [inhibitor, partial curve, poor fit].

Which “activity change, negative = inhibition” value does the source give for COc1cc(NC(=O)c2ccc(C)cc2C)ccc1NC(=O)c1cccs1 here?
Its value is inactive: -10.6%.

With CCOC(=O)C1C(c2cc(OC)c(OC)c(OC)c2)NC(=O)NC1(O)C(F)(F)F (stereo unspecified) as the molecule, how does the “activity change, negative = inhibition” value read?
Its value is inactive: -0.381%.

For CCN1CCN(C(=S)c2ccc(OC)cc2)CC1, which “activity change, negative = inhibition” value is on record?
Its value is inactive: -19.9%.

Which Potency does the source give for CC(C)(C)C(=O)Nc1c(Cl)cccc1OC(F)(F)F here?
The Potency was inconclusive: 89.1 µM [inhibitor, single point].

With COc1ccc(CNC(=O)CCC2N=C3c4ccccc4N=C(SCC(=O)NCC4CCCO4)N3C2=O)cc1 (stereo unspecified) as the molecule, how does the “activity change, negative = inhibition” value read?
Its value is inactive: 0.279%.

COc1ccc(C(=O)Cc2ccc(OC)c(OC)c2)c(OC)c1 was tested. Which Potency did it give?
The Potency was inconclusive: 50.1 µM [inhibitor, partial curve, poor fit].

Which Potency does the source give for CN1CCCN(S(=O)(=O)c2ccccc2)CC1 here?
Its Potency is inconclusive: 44.7 µM [inhibitor, partial curve, poor fit].

For CCN(C(=O)COC(=O)c1c(C)nn(-c2ccccc2)c1Cl)c1c(N)n(Cc2ccccc2)c(=O)[nH]c1=O, which Potency is on record?
The Potency was inconclusive: 112 µM [inhibitor, partial curve, poor fit].

COc1ccc(CNCc2cc(OC)ccc2OC)cc1 was tested. Which Potency did it give?
Its Potency is inconclusive: 2.24 µM [inhibitor, full curve].

How did the Potency turn out when O=C(c1ccccn1)N(Cc1cc2ccccc2[nH]c1=O)C1CCCCC1 was run?
The Potency was inconclusive: 17.8 µM [inhibitor, single point] and inconclusive: 28.2 µM [inhibitor, single point].
